Assay results from article PMC5412921.
Results are given in words; binding and its absence hold for the method and conditions named. Binding seen in cells or lysates may run through a third protein. Some results given as binding are weak or reduced against the parent protein; the word gives no strength.

Sequences of proteins named here, by UniProt entry; tags and fusion partners are left off.
UniProt Q04207: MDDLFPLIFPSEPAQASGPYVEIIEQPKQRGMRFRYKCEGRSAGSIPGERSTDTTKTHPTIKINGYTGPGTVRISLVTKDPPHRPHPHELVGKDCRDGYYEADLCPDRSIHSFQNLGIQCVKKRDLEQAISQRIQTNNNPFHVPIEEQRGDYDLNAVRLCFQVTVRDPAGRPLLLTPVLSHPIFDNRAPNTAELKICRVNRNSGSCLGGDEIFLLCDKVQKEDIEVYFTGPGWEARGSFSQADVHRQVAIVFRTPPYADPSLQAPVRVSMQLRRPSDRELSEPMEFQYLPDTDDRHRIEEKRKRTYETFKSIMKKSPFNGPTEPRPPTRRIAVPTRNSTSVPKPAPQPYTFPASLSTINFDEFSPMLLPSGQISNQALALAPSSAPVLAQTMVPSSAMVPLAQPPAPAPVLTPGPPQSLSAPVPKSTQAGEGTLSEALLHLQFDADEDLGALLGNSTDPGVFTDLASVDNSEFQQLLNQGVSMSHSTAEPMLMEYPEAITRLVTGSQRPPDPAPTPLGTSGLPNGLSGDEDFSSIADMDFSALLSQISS
UniProt P42227: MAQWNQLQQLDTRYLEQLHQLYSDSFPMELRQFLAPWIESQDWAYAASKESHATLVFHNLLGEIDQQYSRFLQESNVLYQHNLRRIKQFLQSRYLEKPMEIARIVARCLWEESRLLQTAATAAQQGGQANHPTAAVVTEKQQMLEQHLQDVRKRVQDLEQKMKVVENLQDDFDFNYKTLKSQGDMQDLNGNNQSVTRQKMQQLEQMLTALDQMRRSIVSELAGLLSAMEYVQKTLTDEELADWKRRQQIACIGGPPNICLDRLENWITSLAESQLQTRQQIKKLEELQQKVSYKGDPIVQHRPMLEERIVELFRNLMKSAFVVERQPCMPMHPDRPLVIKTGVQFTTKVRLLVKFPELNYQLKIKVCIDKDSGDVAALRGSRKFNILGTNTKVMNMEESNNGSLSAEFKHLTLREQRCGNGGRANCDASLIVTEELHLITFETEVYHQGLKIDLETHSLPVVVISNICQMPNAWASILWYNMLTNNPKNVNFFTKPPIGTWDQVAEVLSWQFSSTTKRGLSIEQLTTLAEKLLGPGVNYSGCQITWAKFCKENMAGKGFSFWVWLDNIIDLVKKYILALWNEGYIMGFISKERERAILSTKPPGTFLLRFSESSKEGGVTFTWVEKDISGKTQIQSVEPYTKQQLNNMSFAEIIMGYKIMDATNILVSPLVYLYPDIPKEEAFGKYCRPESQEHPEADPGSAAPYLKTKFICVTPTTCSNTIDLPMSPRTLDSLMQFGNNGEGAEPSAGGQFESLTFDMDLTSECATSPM

Experiments:
[1] = target: p65 subunit of NF-κB (mouse (endogenous in C2C12)) (UniProt Q04207); test: co-IP; nuclear and cytoplasmic fractions of C2C12 myotubes treated or not with IFNγ/TNFα; antibody (total STAT3, p65 or IgG control) on protein A Sepharose beads, lysates overnight at 4°C, washed once with low salt and twice with medium salt buffer; Western blot for total STAT3, pY-STAT3 and p65
[2] = target: Signal transducer and activator of transcription 3 (STAT3) (mouse (endogenous in C2C12)) (UniProt P42227); test: as above

| binding [1] | binding [2] | Substance |
| --- | --- | --- |
| binds |  | STAT3 phosphorylated on Tyr705 (pY-STAT3) (from UniProt P42227 1-770) |
| binds |  | Signal transducer and activator of transcription 3 (STAT3) (from UniProt P42227 1-770) |
|  | binds | p65 subunit of NF-κB (from UniProt Q04207 1-549) |
